According to PubChem BioAssay AID504444 (National Center for Advancing Translational Sciences (NCATS), 2011):
The campaign covered roughly 360,000 compounds. About 7,500 (2.1%) were called active. The shares of active, inactive and inconclusive entries below differ from those in the screen. Calls follow the shape of the dose curve; as a rule, active = well fitted inhibition curve with a large enough effect; inconclusive = small, poorly fitted or top-dose-only effect, or effect the other way; inactive = flat fitted curve, though single readings scatter. Potencies beside an inconclusive call are fits to weak or partial responses and may not hold up.

test: Nrf2 qHTS screen for inhibitors; conditions: A549 ARE-Fluc reporter, luciferase luminescence, 18-24 h; activity change, negative = inhibition: at 46 µM (top of the series); also: nearly all actives have a fitted effect of over 60% in size
Outline: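 Two sequential reads on A549 ARE_Fluc cells exposed to compound for 18-24 h: a CellTiter-Fluor fluorescence read for viability, then a luciferase luminescence read for Nrf2/ARE activity.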
% is scaled to controls: 0 for no effect and ±100 for the full control effect; potency is read from the fitted curve at half-maximal effect.

Which Potency does the source give for CCc1ccc(S(=O)(=O)NCc2cn3ccccc3n2)s1 here?
The Potency was inconclusive: 1.03 µM [falling, full curve].

For Cc1ccc(O)c(NC(=S)NC(=O)COc2ccc(Br)cc2)c1, which Potency is on record?
Its Potency is inconclusive: 32.6 µM [falling, single point].

For COc1cccc(/C=N/Nc2ccc([N+](=O)[O-])cn2)c1O, which Potency is on record?
Its Potency is inconclusive: 32.6 µM [falling, partial curve, poor fit].

Which Potency does the source give for COc1cccc(-c2nc(SCC(=O)Nc3ccc4c(c3)OCCO4)c(-c3ccc(C)cc3)[nH]2)c1 here?
The Potency was inconclusive: 18.4 µM [falling, single point].

For COc1ccc(CN2CCNC(=O)C2CC(=O)NCC2CCOCC2)cc1C (configuration not stated), which Potency is on record?
The Potency was inconclusive: 0.164 µM [falling, full curve, poor fit].

With C#CC[N+]1(CC#Cc2cccc(C)c2)CCCCC1 as the compound, how does the Potency read?
The Potency was inconclusive: 14.6 µM [falling, single point].

For CCSc1nnc(NC(=O)/C=C/c2ccco2)s1, which Potency is on record?
The Potency was inconclusive: 0.058 µM [activator, full curve, poor fit].

Which “activity change, negative = inhibition” value does the source give for CCN1Cc2cc(OC)ccc2-c2ccccc2S1(=O)=O here?
The value was inactive: 2.29%.

For Cc1ccc(Nc2cc(C)nc(-c3ccccc3)n2)cc1, which Potency is on record?
The Potency was inconclusive: 32.6 µM [activator, single point].

For O=C(Nc1cc(S(=O)(=O)N2CCOCC2)ccc1Cl)c1cc2ccccc2o1, which Potency is on record?
Its Potency is inconclusive: 20.6 µM [falling, single point].

With Cc1ccc(C(C)C)c(OCC(=O)NNC(=O)CC2OC(=O)c3ccccc32)c1 (configuration not stated) as the compound, how does the Potency read?
Its Potency is inconclusive: 23.1 µM [activator, partial curve, poor fit].

For Cc1cccc(OCCCn2c(CCNC(=O)C3CCCCC3)nc3ccccc32)c1, which Potency is on record?
Its Potency is inconclusive: 23.1 µM [falling, single point].

With CS(=O)(=O)N1CCN=C1SCc1ccccc1 as the compound, how does the Potency read?
The Potency was inconclusive: 18.4 µM [falling, single point].

With NC(=O)CSc1nc2ccc(NC(=O)COc3ccccc3Cl)cc2s1 as the compound, how does the Potency read?
The Potency was inconclusive: 18.4 µM [falling, single point].

With Cn1cc(/C=N\NC(=O)c2cccs2)c2ccccc21 as the compound, how does the Potency read?
The Potency was inconclusive: 1.64 µM [activator, full curve, poor fit].

Which “activity change, negative = inhibition” value does the source give for Cc1ccc(N=C(N)N=C(N)N)cc1 here?
The value was inactive: -17.1%.

For CCN(CC)S(=O)(=O)c1cccc(NC(=O)c2ccc(S(=O)(=O)N3CCCC3)cc2)c1, which Potency is on record?
Its Potency is active: 23.1 µM.

For Cn1ccc(C(=O)N/N=C/c2c[nH]c3ccccc23)n1, which Potency is on record?
The Potency was inconclusive: 29.1 µM [activator, single point].

With CCOc1ccc(NC(=O)[C@@H]2CCCN2C(=O)c2cccs2)cc1S(=O)(=O)N1CCCCC1 as the compound, how does the “activity change, negative = inhibition” value read?
Its value is inactive: 6.09%.

With Cc1ccc(C)c(N2CCN(C(=O)C(CC(C)C)NS(=O)(=O)c3ccc4nc(C)sc4c3)CC2)c1 (configuration not stated) as the compound, how does the Potency read?
Its Potency is inconclusive: 29.1 µM [falling, single point].

For CCc1ccc(CC2S/C(=C(\C#N)C(C)=O)NC2=O)cc1 (configuration not stated), which Potency is on record?
The Potency was inconclusive: 25.9 µM [activator, single point].

Which “activity change, negative = inhibition” value does the source give for O=C(CCS(=O)(=O)c1ccccc1)Nc1nc(-c2cccs2)cs1 here?
Its value is inactive: 8.28%.

Which Potency does the source give for O=C(Nc1nc2c(s1)CCCC2)c1ccc(N2C(=O)CCC2=O)cc1 here?
The Potency was inconclusive: 13 µM [activator, partial curve].

Which Potency does the source give for O=C(NS(=O)(=O)Oc1ccc(F)cc1F)OC[C@@H]1CCCN2CCCCC12 (some centres not stated) here?
Its Potency is inconclusive: 0.58 µM [falling, full curve].

With COc1ccc(CSc2nnnn2-c2ccc(C(=O)O)cc2)cc1 as the compound, how does the Potency read?
Its Potency is inconclusive: 4.11 µM [falling, partial curve, poor fit].

Which “activity change, negative = inhibition” value does the source give for Cc1ccccc1OCC(=O)NCC(=O)OC(c1ccccc1)c1ccccc1 here?
The value was inactive: 5.05%.

Which Potency does the source give for Cc1cc(NCc2ccccn2)ccc1Br here?
The Potency was inconclusive: 0.731 µM [activator, partial curve, poor fit].

For CCc1cccc(C)c1NC(=O)CSc1nc2c(c(=O)[nH]1)CCC2, which Potency is on record?
Its Potency is inconclusive: 29.1 µM [activator, single point].

With CCCN1C(=O)C(Cc2nc3ccccc3c(=O)n2-c2ccc(OC)cc2)c2cc(C)ccc21 (configuration not stated) as the compound, how does the Potency read?
The Potency was inconclusive: 29.1 µM [falling, single point].

For O=C(NCCCCc1ccccc1)c1cccc(NC(=O)C2CCC2)c1, which Potency is on record?
Its Potency is active: 16.4 µM.

For Cc1cnc(NC(=O)C2COc3ccccc3O2)s1 (configuration not stated), which Potency is on record?
Its Potency is inconclusive: 1.84 µM [falling, single point].

For Cc1ccnc2nc(C(=O)Nc3cc(Cl)ccc3N3CCOCC3)nn12, which Potency is on record?
The Potency was inconclusive: 8.2 µM [activator, partial curve, poor fit].

With Cc1ccc(-c2cc(-c3ccccc3)no2)c(O)c1 as the compound, how does the “activity change, negative = inhibition” value read?
The value was inactive: 11.6%.

Which “activity change, negative = inhibition” value does the source give for CC(/C=C1\SC(=S)N(NC(=O)c2ccc(O)cc2)C1=O)=C\c1ccccc1 here?
Its value is inactive: -13.3%.

With Cc1cc(-c2ccccc2)nc(N2CCN(c3ccccn3)CC2)n1 as the compound, how does the Potency read?
The Potency was inconclusive: 29.1 µM [falling, single point].

With CCCn1c(SCC(=O)N2CCN(C(C)=O)CC2)nc2sc3c(c2c1=O)CCC3 as the compound, how does the Potency read?
The Potency was inconclusive: 5.8 µM [falling, partial curve].

For Cn1cc(S(=O)(=O)c2cccc(Cl)c2)c(=O)c2cc(F)c(N3CCCCC3)cc21, which Potency is on record?
Its Potency is inconclusive: 10.3 µM [falling, single point].

With Cc1ccc(OCc2csc(N)n2)cc1 as the compound, how does the Potency read?
The Potency was inconclusive: 18.4 µM [activator, partial curve].

For O=C(CSc1nc(-c2ccccc2)nc2ccccc12)Nc1nccs1, which Potency is on record?
Its Potency is inconclusive: 23.1 µM [falling, partial curve, poor fit].

Which Potency does the source give for COc1ccc(C(=O)Sc2nncc3ccccc23)cc1 here?
Its Potency is inconclusive: 16.4 µM [falling, partial curve, poor fit].

Which Potency does the source give for CCCCn1c(N)c(N(CC(C)C)C(=O)c2ccc(S(=O)(=O)N(CC)c3ccccc3)cc2)c(=O)[nH]c1=O here?
The Potency was inconclusive: 0.0164 µM [falling, full curve, poor fit].

With Cc1ccc(S(=O)(=O)N2CCCN(S(=O)(=O)c3ccc(C(F)(F)F)cc3)CC2)cc1 as the compound, how does the Potency read?
Its Potency is inconclusive: 8.2 µM [falling, partial curve].

Which Potency does the source give for O=C(Nc1ccc(N2CCOCC2)cc1)c1ccc2c(c1)OCO2 here?
Its Potency is inconclusive: 1.64 µM [activator, full curve].

With O=C(Nc1nnc(-c2ccncc2)o1)c1ccc(Br)s1 as the compound, how does the Potency read?
Its Potency is inconclusive: 29.1 µM [falling, single point].

Which Potency does the source give for O=C(CCc1nc(-c2ccc(Cl)cc2)no1)NC1CCCCC1 here?
Its Potency is inconclusive: 0.082 µM [falling, partial curve, poor fit].

For CC1CCC(NC(=O)c2ccc(S(C)(=O)=O)cc2)CC1 (configuration not stated), which Potency is on record?
The Potency was inconclusive: 14.6 µM [activator, partial curve].

Which Potency does the source give for CCN(CC)c1ncnc2ccc(Br)cc12 here?
Its Potency is inconclusive: 16.4 µM [falling, single point].

With CC(NC(=O)COC(=O)C1CCN(c2ccc(C(F)(F)F)cn2)CC1)c1ccc(F)cc1 (configuration not stated) as the compound, how does the “activity change, negative = inhibition” value read?
The value was inactive: -14.1%.

With O=C(Nc1cc(F)ccc1F)C1CCN(S(=O)(=O)c2cccc3nonc23)CC1 as the compound, how does the Potency read?
The Potency was inconclusive: 18.4 µM [falling, single point].

Which Potency does the source give for COc1cc(OC)cc(-c2nnc(NC(=O)CCS(=O)(=O)c3ccc(F)cc3)o2)c1 here?
Its Potency is active: 20.6 µM.

With CC(C)C(=O)OCc1cc(=O)n2nc(C3CC3)sc2n1 as the compound, how does the Potency read?
The Potency was inconclusive: 16.4 µM [activator, partial curve, poor fit].

With COc1ccc(C(=O)NC(C)c2cnn(-c3ccccn3)c2C)o1 (configuration not stated) as the compound, how does the “activity change, negative = inhibition” value read?
The value was inactive: 1.92%.

For O=C(OCc1ccc(F)cc1)c1cc(S(=O)(=O)N2CCCCC2)ccc1N1CCOCC1, which Potency is on record?
The Potency was inconclusive: 3.26 µM [falling, partial curve, poor fit].

Which Potency does the source give for Cc1sc2nc(CSc3cccc(C(F)(F)F)c3)[nH]c(=O)c2c1C here?
The Potency was inconclusive: 14.6 µM [falling, partial curve, poor fit].

With CCn1cc(Br)c(C(=O)Nc2sc3c(c2C(N)=O)CCCC3)n1 as the compound, how does the Potency read?
Its Potency is inconclusive: 25.9 µM [activator, partial curve, poor fit].

Which Potency does the source give for Cc1cc(NC(=O)c2cccn2-c2nnc(N3CCCCC3)s2)ccc1Br here?
Its Potency is inconclusive: 14.6 µM [falling, partial curve, poor fit].

For Cc1cc(Cl)ccc1NC(=O)CCCn1nc(C)c2c(C)n(-c3ccccc3)nc2c1=O, which Potency is on record?
Its Potency is inconclusive: 29.1 µM [activator, single point].

For COc1cc(/C=C(\C#N)c2nc3ccccc3[nH]2)cc(Br)c1OCc1ccccc1, which Potency is on record?
The Potency was inconclusive: 20.6 µM [falling, single point].

Which “activity change, negative = inhibition” value does the source give for Cc1ccnc(-n2c(C)cc(/C=N/NC(=O)COc3cccc4cccnc34)c2C)c1 here?
Its value is inactive: -4.17%.

With O=C(Nc1cccs1)Nc1ccccc1Br as the compound, how does the Potency read?
Its Potency is inconclusive: 3.26 µM [activator, partial curve].

For CCN1CCN(C(=O)c2c(-c3ccccc3)noc2C)CC1, which “activity change, negative = inhibition” value is on record?
Its value is inactive: -1.9%.

Which Potency does the source give for O=C(NC1CCCC1)c1nc2c(nnn2Cc2cccc(Cl)c2)c(=O)[nH]1 here?
The Potency was inconclusive: 23.1 µM [falling, single point].

For O=[N+]([O-])c1cccc(-c2cc3cccc[n+]3cc2-c2cccc([N+](=O)[O-])c2)c1, which “activity change, negative = inhibition” value is on record?
Its value is inactive: 19.2%.

Which “activity change, negative = inhibition” value does the source give for O=C(OCCN1C(=O)c2cccc3c(N4CCOCC4)ccc(c23)C1=O)c1cccc(Cl)c1 here?
Its value is inactive: -24.6%.

For O=c1[nH]c(SCc2nc3ccccc3n2Cc2ccccc2)nc2ccccc12, which Potency is on record?
Its Potency is inconclusive: 25.9 µM [falling, partial curve, poor fit].

With Cc1ccc(C(=O)Nc2ccc3oc(-c4ccccc4C)nc3c2)cc1 as the compound, how does the Potency read?
The Potency was active: 6.51 µM.

With Cc1ccc(NC(=O)C2COc3ccccc3O2)cc1S(=O)(=O)N1CCCCC1 (configuration not stated) as the compound, how does the Potency read?
Its Potency is inconclusive: 20.6 µM [falling, single point].
